Assay in all cases: glycan array binding signal (z-score within array); higher = stronger binding
Holding throughout (details): glycan notation: IUPAC condensed, linker removed

The target of assay [1] is Gal(b1-4)GlcNAc(b1-3)Gal(b1-4)GlcNAc(b1-3)Gal(b1-4)GlcNAc(b1-3)Gal(b1-4)GlcNAc(b1-3)Gal(b1-4)GlcNAc(b1-2)[Gal(b1-4)GlcNAc(b1-3)Gal(b1-4)GlcNAc(b1-3)Gal(b1-4)GlcNAc(b1-3)Gal(b1-4)GlcNAc(b1-3)Gal(b1-4)GlcNAc(b1-6)]Man(a1-6)[Gal(b1-4)GlcNAc(b1-3)Gal(b1-4)GlcNAc(b1-3)Gal(b1-4)GlcNAc(b1-3)Gal(b1-4)GlcNAc(b1-3)Gal(b1-4)GlcNAc(b1-2)Man(a1-3)]Man(b1-4)GlcNAc(b1-4)[Fuc(a1-6)]GlcNAc. The gist of the method:
(§1)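 The binding signal is a Z-score computed within each array and averaged over linkers. Arrays of the same protein sequence at different concentrations or buffers were also averaged together. Data originate from 3228 arrays in the Consortium for Functional Glycomics database, kept only where the protein sequence was available.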

The target in assay [2] is Gal(b1-4)GlcNAc(b1-3)Gal(b1-4)GlcNAc(b1-3)Gal(b1-4)GlcNAc(b1-3)Gal(b1-4)GlcNAc(b1-3)Gal(b1-4)GlcNAc(b1-3)Gal(b1-4)GlcNAc(b1-2)Man(a1-3)[Gal(b1-4)GlcNAc(b1-3)Gal(b1-4)GlcNAc(b1-3)Gal(b1-4)GlcNAc(b1-3)Gal(b1-4)GlcNAc(b1-3)Gal(b1-4)GlcNAc(b1-3)Gal(b1-4)GlcNAc(b1-2)Man(a1-6)]Man(b1-4)GlcNAc(b1-4)GlcNAc. The gist of the method: as §1
The target in assay [3] is Gal(b1-4)GlcNAc(b1-3)Gal(b1-4)GlcNAc(b1-3)GalNAc. The gist of the method: as §1
Assay [4] concerns the target Gal(b1-4)GlcNAc(b1-3)Gal(b1-4)GlcNAc(b1-3)[Gal(b1-4)GlcNAc(b1-3)Gal(b1-4)GlcNAc(b1-6)]GalNAc. The gist of the method:
as §1

Assay [5] concerns the target Gal(b1-4)GlcNAc(b1-3)Gal(b1-4)GlcNAc(b1-6)[Gal(b1-3)]GalNAc. In short, it runs like this:
as §1

The target in assay [6] is Gal(b1-4)GlcNAc(b1-3)Gal(b1-4)[Fuc(a1-3)]GlcNAc(b1-3)Gal(b1-4)[Fuc(a1-3)]GlcNAc. In short, it runs like this: as §1
Assay [7] has as its target Gal(b1-4)GlcNAc(b1-3)GalNAc. In short, it runs like this:
as §1

Assay [8] addresses Gal(b1-4)GlcNAc(b1-3)[Fuc(a1-3)GlcNAc(b1-6)]Gal(b1-4)Glc. The gist of the method: as §1
Assay [9] addresses Gal(b1-4)GlcNAc(b1-3)[Gal(b1-4)GlcNAc(b1-6)]Gal(b1-4)GlcNAc. The gist of the method:
as §1

Assay [10] has as its target Gal(b1-4)GlcNAc(b1-3)[GlcNAc(b1-6)]Gal(b1-4)GlcNAc. The gist of the method:
as §1

Assay [11] deals with Gal(b1-4)GlcNAc(b1-6)Gal(b1-4)GlcNAc. In short, it runs like this: as §1
Assay [12] has as its target Gal(b1-4)GlcNAc(b1-6)GalNAc. The gist of the method:
as §1

The target of assay [13] is Gal(b1-4)GlcNAc(b1-6)[Gal(b1-3)]GalNAc. In short, it runs like this:
as §1

Assay [14] has as its target Gal(b1-4)GlcNAc(b1-6)[Gal(b1-4)GlcNAc(b1-3)]GalNAc. In short, it runs like this:
as §1

The target of another assay is Gal(b1-4)GlcNAc6P. In short, it runs like this:
as §1

For a further assay, the target named is Gal(b1-6)Gal. In short, it runs like this:
as §1

The target in another assay is Gal3S(b1-3)GalNAc. In short, it runs like this: as §1
Another assay addresses Gal3S(b1-3)GlcNAc. In short, it runs like this:
as §1

Assay [15] concerns the target Gal3S(b1-3)[Fuc(a1-4)]GlcNAc. The gist of the method: as §1

The other results are listed elsewhere or left out.

B1: PX14343C-bfa-541-26-541 (Bacteroides fragilis) (protein)
chain: KAPLDEIADDSFWSDETLVKYYVNDLYSEISVDGLQLQENRSDNSVSAQRDKYRASWFKFNYDMVSASDPQDDDVWEDYYVKVRKCNRFFERIGTSTIEESEKSRLTGEVHFLRAMFYFEMVKRYGGVILLDKVLTMEDNWEIPRSSEKECYDFILEDLKKATEMLPASYGSREKGRATKGAAYALKSRVELYDKRYEDVIKSCAEVYKLGYELVDGTTPEKYRSIWWTTNKDNKEIIFDVQYKSPDVYNNMMVCNMVTYINDKYGDRGWGGLGPTQELIDAFEMADGTPATQYSQAPADQVFDINTCGIYEGREPRFYANIVFHGSQIFFNADKGAVTVDRYLMDTPDKGDGSLTGYNVWKWIDYDNYNYPYAGAGSPDFSTNWIILRYAEIYLNDAEARLETGDVEGARKAVNMIRQRVGLPDLTESDPEKLRELIRKERRIEFAFEEQRFYDVRRWKIGPETQTTLHGVRFVSPTEFKVTKTDIRTWNDRLYLTPVPHDEIVRSSVLKQNLGY
On to B1, for which the “glycan array binding signal (z-score)” value is 0.758 in assay [1]; 0.381 in assay [2]; 0.28 in [3]; -0.217 in assay [4]; -0.448 in assay [5]; 0.836 in assay [6]. The “glycan array binding signal (z-score)” value in assay [7] is -0.581; in [8] it was -0.807; in [9], -0.227; in assay [10], -0.998; in assay [11], -0.286; in [12], 0.165. The “glycan array binding signal (z-score)” value in assay [13] is -0.135; in assay [14], 0.249; with Gal(b1-4)GlcNAc6P it was -0.341; with Gal(b1-6)Gal, -0.47; in the assay with Gal3S(b1-3)GalNAc, -0.409; in the assay with Gal3S(b1-3)GlcNAc, -0.147. Besides, in [15], the “glycan array binding signal (z-score)” value was determined as 0.181.

The values are drawn from the supplement of paper PMC8728848.
